Assay results reported in patent US10857167B2, “Use of oligosaccharide compositions to enhance weight gain” (Children's Hospital Medical Center, priority 2015, dated 2020).
The source gives many values for each of these; only a part stands here.

System: distal small bowel gene expression
Assay: RNA sequencing / transcriptional analysis of small bowel 56 days after ICR (2′-FL signature response)
Type: in vivo, mouse
Excerpt: Luminal small bowel contents were expressed into AllProtect Tissue Reagent (Qiagen Inc, CA). Bacterial DNA was extracted using the AllPrep DNA/RNA Mini Kit (Qiagen Inc, CA), according to kit instructions and prior to sequencing (described below). Small bowel tissue samples for RNA were placed into RNA Later (Life Technologies, NY). RNA extraction was accomplished following Qiagen RNeasy Plus Kit instruction (Qiagen Inc, CA). All nucleic acid samples were then stored at -80 Celsius until sequenced (described below). Transcriptional analysis was carried out on resected and harvested small bowel samples obtained from operated mice taken to 8 weeks. Murine RNA sequencing libraries were prepared from approximately 1.5 μg RNA using the TruSeq RNA Sample Preparation Kit (Illumina, Calif.) and sequenced using the HiSeq 2000 Sequencing System (Illumina, Calif.) with single-end 50 bp reads. Following removal of primers and barcodes, sequences were aligned to the mm10 genome using reference annotations from UCSC (Rosenbloom et al. (2015) Nucleic acids research 43: […]-681) (n=36,186 entities). Aligned reads were quantified and used to compute reads per kilobase per million mapped reads (RPKM); raw counts were then normalized using the DESeq algorithm and each harvested sample was baselined to its own resected sample. A filter was applied to the data, requiring at least three reads in all samples of at least one of the four experimental conditions (n=14,489 entities). The data discussed in this publication have been deposited in NCBI's Gene Expression Omnibus and are accessible through NCBI Gene Expression Omnibus (GEO) Series accession number GSE72590. Edgar et al. (2002) Nucleic acids research 30: 207-210. In order to characterize the impact of 2'-FL supplementation while accounting for the effect of ileoecal resection, a t-test was applied between resected and harvested samples within control and experimental animals. Significance was set at a p-value of ≤0.05 and a fold change of 3, which generated 2,576 differentially regulated entities across two comparisons. Gene set unions and intersections of the control and experimental gene sets were identified through Venn diagrams. From the master list, the gene list specific to animals supplemented with 2'-FL were removed in order to identify genes differentially regulated only by ICR (n=546 entities); this gene set characterizes the adaptive response. Further, the 2'-FL response (n=2,030 entities) was identified by removing the adaptive response signature described above from the master list, leaving only genes regulated by 2'-FL supplementation after ICR which were not found in the non-supplemented adaptive response. Heatmaps were generated using hierarchical clustering with the Pearson's Centered distance metric and the average linkage rule; both entities and samples were clustered. All genomic analyses described above were performed in Strand NGS (Strand Life Sciences, CA). Gene list functional enrichment was initially discovered using ToppFun, a member of the ToppGene Suite. Chen et al. (2009) Nucleic acids research 37: […]-311. No statistical correction was selected. Gene lists were further analyzed using ClueGO, a plugin for Cytoscape designed to decipher functionally grouped gene ontology and pathway annotation networks. Bindea et al. (2009) Bioinformatics 25: 1091-1093. At the time of data analysis, the annotation files were updated from sources to Jan. 1, 2015. “GO Term Fusion” was enabled to manage ontologic term redundancy and network specificity was set to medium. Results were restricted to pathways with p≤0.05 using Benjamini-Hochberg correction and Kappa scoring was set to 0.4. Biocyc annotations were assigned a rectangle, gene ontology biologic processes were assigned an ellipse, and […] annotations were assigned a diamond shape. No meaning was assigned to size or color. […]

C[C@@H]1O[C@@H](O[C@H]2[C@H](O[C@H]3[C@H](O)[C@@H](O)C(O)O[C@@H]3CO)O[C@H](CO)[C@H](O)[C@@H]2O)[C@@H](O)[C@H](O)[C@@H]1O (stereo partly drawn) [2′-FL, 2′-fucosyllactose]
Fold Change (Pre- to Post-op) (gene Npcd): −4.682 | Fold Change (Pre- to Post-op) (gene Npnt): −3.768 | Fold Change (Pre- to Post-op) (gene Npr2): −4.111 | Fold Change (Pre- to Post-op) (gene Nptxr): −4.5 | Fold Change (Pre- to Post-op) (gene Nrip1): −6.868 | Fold Change (Pre- to Post-op) (gene Nrip2): −3.525 | Fold Change (Pre- to Post-op) (gene Nrp2): −5.453 | Fold Change (Pre- to Post-op) (gene Nrxn1): −4.233 | Fold Change (Pre- to Post-op) (gene Nsf): −3.278 | Fold Change (Pre- to Post-op) (gene Ntn1): −3.497 | Fold Change (Pre- to Post-op) (gene Ntsr1): −5.175 | Fold Change (Pre- to Post-op) (gene Nuak1): −4.597 | Fold Change (Pre- to Post-op) (gene Numa1): −3.183 | Fold Change (Pre- to Post-op) (gene Numbl): −3.947 | Fold Change (Pre- to Post-op) (gene Nup210): −3.493 | Fold Change (Pre- to Post-op) (gene Nup214): −3.254 | Fold Change (Pre- to Post-op) (gene Obsl1): −7.607 | Fold Change (Pre- to Post-op) (gene Ocrl): −3.017 | Fold Change (Pre- to Post-op) (gene Ocstamp): −3.642 | Fold Change (Pre- to Post-op) (gene Olfml2a): −4.749 | Fold Change (Pre- to Post-op) (gene Orm1): −3.4 | Fold Change (Pre- to Post-op) (gene Osbpl7): −3.933 | Fold Change (Pre- to Post-op) (gene P2rx2): −7.423 | Fold Change (Pre- to Post-op) (gene Pacs1): −12.77 | Fold Change (Pre- to Post-op) (gene Pacs2): −3.311 | Fold Change (Pre- to Post-op) (gene Pag1): −5.175 | Fold Change (Pre- to Post-op) (gene Pak6): −3.706 | Fold Change (Pre- to Post-op) (gene Palld): −5.022 | Fold Change (Pre- to Post-op) (gene Pappa): −4.378 | Fold Change (Pre- to Post-op) (gene Paqr3): −3.604 | Fold Change (Pre- to Post-op) (gene Pard3b): −3.71 | Fold Change (Pre- to Post-op) (gene Patl1): −4.295 | Fold Change (Pre- to Post-op) (gene Pbx1): −3.808 | Fold Change (Pre- to Post-op) (gene Pbx3): −3.437 | Fold Change (Pre- to Post-op) (gene Pcdh1): −4.568 | Fold Change (Pre- to Post-op) (gene Pcdh20): −5.134 | Fold Change (Pre- to Post-op) (gene Pcdha2): −3.906 | Fold Change (Pre- to Post-op) (gene Pcdhga1): −3.557 | Fold Change (Pre- to Post-op) (gene Pcdhga2): −3.732 | Fold Change (Pre- to Post-op) (gene Pcdhga3): −3.45 | Fold Change (Pre- to Post-op) (gene Pcdhga7): −3.724 | Fold Change (Pre- to Post-op) (gene Pcdhga8): −3.616 | Fold Change (Pre- to Post-op) (gene Pcdhga11): −3.631 | Fold Change (Pre- to Post-op) (gene Pcdhga12): −3.372 | Fold Change (Pre- to Post-op) (gene Pcdhgb6): −4.149 | Fold Change (Pre- to Post-op) (gene Pcdhgc3): −4.376 | Fold Change (Pre- to Post-op) (gene Pcdhgc4): −4.034 | Fold Change (Pre- to Post-op) (gene Pcnt): −3.968 | Fold Change (Pre- to Post-op) (gene Pcnxl3): −5.828 | Fold Change (Pre- to Post-op) (gene Pcp2): −4.218 | Fold Change (Pre- to Post-op) (gene Pcsk5): −4.34 | Fold Change (Pre- to Post-op) (gene Pcsk6): −4.434 | Fold Change (Pre- to Post-op) (gene Pde2a): −4.009 | Fold Change (Pre- to Post-op) (gene Pde4a): −4.609 | Fold Change (Pre- to Post-op) (gene Pde7b): −4.931 | Fold Change (Pre- to Post-op) (gene Pde11a): −6.954 | Fold Change (Pre- to Post-op) (gene Pdgfrb): −6.671 | Fold Change (Pre- to Post-op) (gene Pds5a): −3.546 | Fold Change (Pre- to Post-op) (gene Pear1): −5.721 | Fold Change (Pre- to Post-op) (gene Pecam1): −4.848 | Fold Change (Pre- to Post-op) (gene Peli2): −3.546 | Fold Change (Pre- to Post-op) (gene Pelp1): −3.18 | Fold Change (Pre- to Post-op) (gene Per1): −4.285 | Fold Change (Pre- to Post-op) (gene Pfkfb3): −3.197 | Fold Change (Pre- to Post-op) (gene Pglyrp2): −4.794 | Fold Change (Pre- to Post-op) (gene Phactr1): −3.566 | Fold Change (Pre- to Post-op) (gene Phactr4): −4.611 | Fold Change (Pre- to Post-op) (gene Phc1): −7.424 | Fold Change (Pre- to Post-op) (gene Phf2): −5.11 | Fold Change (Pre- to Post-op) (gene Phf3): −3.298 | Fold Change (Pre- to Post-op) (gene Phf8): −3.544 | Fold Change (Pre- to Post-op) (gene Pi4ka): −3.286 | Fold Change (Pre- to Post-op) (gene Pianp): −7.763 | Fold Change (Pre- to Post-op) (gene Piezo1): −4.33 | Fold Change (Pre- to Post-op) (gene Pik3ap1): −8.643 | Fold Change (Pre- to Post-op) (gene Pik3cg): −4.03 | Fold Change (Pre- to Post-op) (gene Pik3r1): −3.669 | Fold Change (Pre- to Post-op) (gene Pik3r5): −3.531 | Fold Change (Pre- to Post-op) (gene Pip4k2b): −3.317 | Fold Change (Pre- to Post-op) (gene Pip5k1c): −3.235 | Fold Change (Pre- to Post-op) (gene Pitpnc1): −4.434 | Fold Change (Pre- to Post-op) (gene Pkd1): −3.65 | Fold Change (Pre- to Post-op) (gene Pkd2): −3.478 | Fold Change (Pre- to Post-op) (gene Pknox2): −4.43 | Fold Change (Pre- to Post-op) (gene Plagl2): −3.073 | Fold Change (Pre- to Post-op) (gene Plbd2): −3.329 | Fold Change (Pre- to Post-op) (gene Plcb2): −3.046 | Fold Change (Pre- to Post-op) (gene Plcb4): −6.88 | Fold Change (Pre- to Post-op) (gene Plch2): −4.41 | Fold Change (Pre- to Post-op) (gene Pld4): −3.663 | Fold Change (Pre- to Post-op) (gene Plec): −6.896 | Fold Change (Pre- to Post-op) (gene Plekhg1): −3.043 | Fold Change (Pre- to Post-op) (gene Plekhg2): −5.53 | Fold Change (Pre- to Post-op) (gene Plekhm1): −3.803 | Fold Change (Pre- to Post-op) (gene Plod1): −3.51 | Fold Change (Pre- to Post-op) (gene Pltp): −3.34 | Fold Change (Pre- to Post-op) (gene Plvap): −3.756 | Fold Change (Pre- to Post-op) (gene Plxdc1): −3.304 | Fold Change (Pre- to Post-op) (gene Plxna1): −3.777 | Fold Change (Pre- to Post-op) (gene Plxna4): −7.249 | Fold Change (Pre- to Post-op) (gene Plxnd1): −5.727 | Fold Change (Pre- to Post-op) (gene Pml): −3.779 | Fold Change (Pre- to Post-op) (gene Pnliprp2): −4.604 | Fold Change (Pre- to Post-op) (gene Pnpla3): −9.606 | Fold Change (Pre- to Post-op) (gene Podxl): −4.473 | Fold Change (Pre- to Post-op) (gene Pogk): −4.38 | Fold Change (Pre- to Post-op) (gene Pogz): −3.485 | Fold Change (Pre- to Post-op) (gene Pole): −3.057 | Fold Change (Pre- to Post-op) (gene Polr1a): −3.227 | Fold Change (Pre- to Post-op) (gene Pom121): −4.661 | Fold Change (Pre- to Post-op) (gene Porcn): −4.398 | Fold Change (Pre- to Post-op) (gene Ppard): −4.207 | Fold Change (Pre- to Post-op) (gene Ppm1l): −3.399 | Fold Change (Pre- to Post-op) (gene Ppp1r3e): −6.615 | Fold Change (Pre- to Post-op) (gene Ppp1r9b): −4.154 | Fold Change (Pre- to Post-op) (gene Ppp1r12a): −3.393 | Fold Change (Pre- to Post-op) (gene Ppp1r12b): −4.323 | Fold Change (Pre- to Post-op) (gene Ppp1r26): −4.92 | Fold Change (Pre- to Post-op) (gene Ppp2r2c): −3.328 | Fold Change (Pre- to Post-op) (gene Prdm2): −3.47
